The target in test [1] is HA-Oct-1 (octamer-binding transcription factor 1) (UniProt P14859). Kind of test: co-IP; tagged proteins co-transfected into HEK293T cells (Fig. 3a, b, e; lanes of Fig. 3n without REGγ); HEPES lysis buffer (20 mM HEPES pH 7.2, 50 mM NaCl, 0.5% Triton X-100, 1 mM NaF, 1 mM DTT), protein A/G agarose, 4 °C, four washes.
Test [2] addresses endogenous REGγ of mouse bone marrow-derived macrophages (mouse (endogenous in BMDMs)) (UniProt P61290). Kind of test: co-IP; endogenous proteins in mouse BMDMs; HEPES lysis buffer (20 mM HEPES pH 7.2, 50 mM NaCl, 0.5% Triton X-100, 1 mM NaF, 1 mM DTT), protein A/G agarose, 4 °C.

Amino acid sequences for entries named in this document (tags omitted).
UniProt P14859: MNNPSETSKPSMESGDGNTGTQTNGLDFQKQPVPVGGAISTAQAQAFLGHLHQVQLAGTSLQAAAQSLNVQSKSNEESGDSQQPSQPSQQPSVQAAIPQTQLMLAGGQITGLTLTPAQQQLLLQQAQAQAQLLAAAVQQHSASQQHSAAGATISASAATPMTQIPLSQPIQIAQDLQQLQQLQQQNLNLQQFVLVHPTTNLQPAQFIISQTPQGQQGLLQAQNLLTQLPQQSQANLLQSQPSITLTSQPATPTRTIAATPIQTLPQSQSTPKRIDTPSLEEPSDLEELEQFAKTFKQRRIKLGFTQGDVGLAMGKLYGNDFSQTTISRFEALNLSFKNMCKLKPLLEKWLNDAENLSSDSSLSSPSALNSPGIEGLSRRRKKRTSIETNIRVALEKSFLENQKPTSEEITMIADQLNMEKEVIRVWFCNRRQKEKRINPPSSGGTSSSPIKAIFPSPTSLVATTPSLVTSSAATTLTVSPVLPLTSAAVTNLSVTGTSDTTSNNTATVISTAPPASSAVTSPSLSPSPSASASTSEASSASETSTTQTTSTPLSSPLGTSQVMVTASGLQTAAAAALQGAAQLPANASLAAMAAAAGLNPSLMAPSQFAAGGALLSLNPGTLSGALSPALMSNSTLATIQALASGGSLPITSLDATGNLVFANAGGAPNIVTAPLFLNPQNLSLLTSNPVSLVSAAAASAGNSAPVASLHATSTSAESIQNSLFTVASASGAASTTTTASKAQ
UniProt P61290: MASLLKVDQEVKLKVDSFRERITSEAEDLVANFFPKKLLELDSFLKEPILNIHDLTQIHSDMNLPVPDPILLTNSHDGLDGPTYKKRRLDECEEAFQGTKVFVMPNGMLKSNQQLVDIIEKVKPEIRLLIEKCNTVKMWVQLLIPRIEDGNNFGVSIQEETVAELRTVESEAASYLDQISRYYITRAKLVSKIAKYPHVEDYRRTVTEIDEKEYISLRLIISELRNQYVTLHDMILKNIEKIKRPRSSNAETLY
UniProt Q53GL0: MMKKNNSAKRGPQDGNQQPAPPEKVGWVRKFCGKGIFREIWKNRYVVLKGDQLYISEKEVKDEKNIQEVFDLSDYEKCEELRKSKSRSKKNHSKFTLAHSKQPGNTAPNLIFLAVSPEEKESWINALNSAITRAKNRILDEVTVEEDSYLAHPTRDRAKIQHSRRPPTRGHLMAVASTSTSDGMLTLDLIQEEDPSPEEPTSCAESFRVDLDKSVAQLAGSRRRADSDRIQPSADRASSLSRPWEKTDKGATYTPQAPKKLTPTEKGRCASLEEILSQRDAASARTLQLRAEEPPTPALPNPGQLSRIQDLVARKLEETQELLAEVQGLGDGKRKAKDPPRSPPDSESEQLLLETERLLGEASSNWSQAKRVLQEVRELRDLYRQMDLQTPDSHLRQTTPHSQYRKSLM
UniProt Q9JIY0: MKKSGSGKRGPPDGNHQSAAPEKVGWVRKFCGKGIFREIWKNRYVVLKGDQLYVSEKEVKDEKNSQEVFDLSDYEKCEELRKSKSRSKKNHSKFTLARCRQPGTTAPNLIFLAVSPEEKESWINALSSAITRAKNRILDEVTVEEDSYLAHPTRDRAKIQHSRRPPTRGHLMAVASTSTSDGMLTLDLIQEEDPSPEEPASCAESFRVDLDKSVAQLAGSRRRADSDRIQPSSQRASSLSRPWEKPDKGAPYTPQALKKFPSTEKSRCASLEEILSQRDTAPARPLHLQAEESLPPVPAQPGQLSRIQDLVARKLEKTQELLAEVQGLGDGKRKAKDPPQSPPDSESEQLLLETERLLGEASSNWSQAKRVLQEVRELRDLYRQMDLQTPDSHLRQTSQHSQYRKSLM

These are yes or no findings as the source states them, for the method shown. Binding seen in cells or lysates may run through a third protein. Some entries that bind do so weakly or less than the wild type.

Consider “Myc-CKIP-1 (casein kinase 2-interacting protein-1) (from UniProt Q53GL0 1-409)”, for which the binding entry in test [1] is given as “no binding”.
Regarding “endogenous CKIP-1 of mouse bone marrow-derived macrophages (from UniProt Q9JIY0 1-408)”, the binding result in test [2] was “binds”.

B1: endogenous Oct-1 of mouse bone marrow-derived macrophages (protein, UniProt P25425 1-770)
chain: MNNPSETNKSSMESEDASTGTQTNGLDFQKQPVPVGGAISTAQAQAFLGHLHQVQLAGTSLQAAAQSLNVQSKSSEESGDSQQSSQPSSQPPSVQSAIPQTQLMLAGGQITGLTLTPAQQQLLLQQAQAQAQLLAAAVQQHSASQQHSAAGATISASAATPMTQIPLSQPIQIAQDLQQLQQLQQQNLNLQQFVLVHPTTNLQPAQFIISQTPQGQQGLLQAQNLLTQLPQQSQANLLQPQPSITLTSQPTTPTRTIAAASVQTLPQSQSTPKRIDTPSLEEPSDLEELEQFAKTFKQRRIKLGFTQGDVGLAMGKLYGNDFSQTTISRFEALNLSFKNMCKLKPLLEKWLNDAENLSSDSTASSPSALNSPGLGAEGLNRRRKKRTSIETNIRVALEKSFMENQKPTSEDITLIAEQLNMEKEVIRVWFCNRRQKEKRINPPSSGGTSSSPIKAIFPSPASLVATTPSLVTSSTATTLTVNPVLPLTSAAVTNLSLTDQDLRRGCSWEVLRSLPDRVTTTAGTTDSTSNNNTATVISTAPPASSAVTSPSLSPSPSASASTSEASSASETNTTQTTSTPLPSPLGASQVMVTTPGLQTAAAALQGAAQLPANASLAAMAAAAGLSPGLMAPSQFAAGGALLSLSPGTLGSALSPALMSNSTLATIQALASSGSLPITSLDATGNLVFANAGGAPNIVTAPLFLNPQNLSLLTSNPVSLVSAAAASTGNSAPTASLHASSTSTESIQSSLFTVASASGPASTTTAASKAQ
Consider B1, for which the binding entry in test [2] is reported as “binds”.

(Values after PMC6347643.)
